The values that follow come from PubChem BioAssay AID330 (DTP/NCI, 2004).

The list is a part of this screen's results and no random one: it gathers tests that were run many times, whatever their T/C, doses with no T/C, and many T/C values between a quarter and a half above the control. Other doses and runs of a compound stand elsewhere. T/C: endpoint of the treated group in % of that of the vehicle group. Some entries give survivors of the animals treated and no T/C: the source holds a T/C of zero for them, seemingly a mark for toxic or unscored doses. Some doses without a T/C left all or most animals alive at the check, yet need not have been tolerated: survival well below the control is almost never listed, so the zero probably covers shortened survival too. Survivors were counted at the toxicity check, usually on the fifth day, unless a day is given; later deaths do not show. Schedules are NCI's codes, taken here to give the interval after Q, in days (D) or hours (H), and the number of doses after X. For survival time, the PubChem record calls one and a half times the control and up active, and a quarter to a half above the control has no call in these data; cut-offs in other NCI protocols can differ. Some entries were tested several times; their values stand side by side, smallest first.

In this assay the test system is P388 leukemia ip, CD2F1 mice, survival T/C. Put plainly: NCI In Vivo Anticancer Drug Screen. Data for tumor model P388 Leukemia (intraperitoneal) in CD2F1 (CDF1) mice. Conditions: T/C endpoint: median survival time, higher T/C = longer survival.
Setting [1] is: dose: 50.0 mg/kg/injection, schedule: Q01DX009 (ip), vehicle: saline with Tween-80.
[2] abbreviates: dose: 100.0 mg/kg/injection, schedule: Q01DX009 (ip), vehicle: saline with Tween-80.
The mark [3] stands for this setting: dose: 200.0 mg/kg/injection, schedule: Q01DX009 (ip), vehicle: saline with Tween-80.
The mark [4] stands for this setting: dose: 200.0 mg/kg/injection, schedule: Q01DX005 (ip), vehicle: saline.
Setting [5] is: dose: 240.0 mg/kg/injection, schedule: Q01DX005 (ip), vehicle: Klucel (hydroxypropylcellulose) (HPC).
Setting [6] is: dose: 200.0 mg/kg/injection, schedule: Q01DX009 (ip), vehicle: Klucel (hydroxypropylcellulose) (HPC).
Setting [7] is: dose: 25.0 mg/kg/injection, schedule: Q01DX009 (ip), vehicle: saline with Tween-80.
[8] abbreviates: dose: 120.0 mg/kg/injection, schedule: Q01DX005 (ip), vehicle: saline with Tween-80.

For `CCN(CC)CCCC(C)Nc1cc(OC)c2nc(C)cc(OC)c2c1OC` (stereo unspecified), the survivor count is, setting by setting: (dose: 12.5 mg/kg/injection, schedule: Q01DX009 (ip), vehicle: saline) 6 of 6; (dose: 25.0 mg/kg/injection, schedule: Q01DX009 (ip), vehicle: saline) 3 of 6; under setting [1], 2 of 6; under setting [2], 0 of 6; under setting [3], 0 of 6.
As to `CCOC(=O)C1=C(C#N)C2(CCC(OCc3ccccc3)CC2)C(=O)O1` (stereo unspecified), for the setting “dose: 200.0 mg/kg/injection, schedule: Q01DX009 (ip), vehicle: saline”, the T/C was 127 % of control.
In the case of `O=C(OCCOCCN1CCCCC1)C1c2ccccc2Sc2ccc(Cl)cc21` (stereo unspecified), the survivor count is on record as 0 of 6 (dose: 100.0 mg/kg/injection, schedule: Q01DX005 (ip), vehicle: saline) and 0 of 6 under setting [4].
As to `O=C(CCCC(=O)Nc1ccc2[nH]c3ccccc3c(=O)c2c1)Nc1ccc2[nH]c3ccccc3c(=O)c2c1`, under setting [5], the survivor count is given as 6 of 6.
As for `CCNC(=O)N(Cc1ccccc1)Cc1ccccc1`, the survivor count (dose: 200.0 mg/kg/injection, schedule: Q01DX009 (ip), vehicle: other) is listed as 3 of 6.
For `O=C(Nc1cccc2ccccc12)OCCN=Cc1ccccc1O.O=C(Nc1cccc2ccccc12)OCCN=Cc1ccccc1O.[Cu]`, the survivor count is given as 5 of 5 (dose: 100.0 mg/kg/injection, schedule: Q04DX002 (ip), vehicle: saline with Tween-80) and 5 of 5 (dose: 200.0 mg/kg/injection, schedule: Q04DX002 (ip), vehicle: saline with Tween-80).
In the case of `CC(=O)OCC1OC(n2ncc(=O)[nH]c2=O)C(OC(C)=O)C1OC(C)=O` (stereo unspecified), the T/C reads like this: under setting [2], 127 % of control; (dose: 200.0 mg/kg/injection, schedule: Q01DX009 (ip), vehicle: saline with Tween-80, evaluated on day 20) 127 % of control; (dose: 200.0 mg/kg/injection, schedule: Q01DX009 (ip), vehicle: saline with Tween-80, evaluated on day 30) 127 % of control; (dose: 400.0 mg/kg/injection, schedule: Q01DX009 (ip), vehicle: saline with Tween-80, evaluated on day 20) 127 % of control; (dose: 400.0 mg/kg/injection, schedule: Q01DX009 (ip), vehicle: saline with Tween-80, evaluated on day 30) 127 % of control.
On to `CCN(CC)CCOC1C=C(C)C2CC1C2(C)C` (stereo unspecified), for which the survivor count under setting [4] is 0 of 6.
Take `C=CC(=O)NCCSSCCNC(=O)C=C`: the survivor count under setting [1] is recorded as 5 of 6 and the survivor count under setting [3] was 5 of 6.
Consider `O=c1[nH]cnc2cc([N+](=O)[O-])ccc12`, for which the survivor count (dose: 200.0 mg/kg/injection, schedule: Q01DX005 (ip), vehicle: Klucel (hydroxypropylcellulose) (HPC)) is recorded as 1 of 5.
Take `CCCCCCCCCCCCCCCC[N+](C)(C)C(C)c1ccccc1` (stereo unspecified): where the note is “dose: 3.13 mg/kg/injection, schedule: Q04DX003 (ip), vehicle: saline with Tween-80”, the T/C is 125 and 126 % of control. The survivor count (dose: 6.25 mg/kg/injection, schedule: Q04DX003 (ip), vehicle: saline with Tween-80) is given as 0 of 6.
Turning to `COC(=O)c1nc(N)nc(C(=O)OC)c1C(=O)c1ccc(F)cc1`, under setting [5], the survivor count was 0 of 6.
Regarding `CC1=CC=CC2=NC(=O)CCN12`, the survivor count (dose: 400.0 mg/kg/injection, schedule: Q04DX003 (ip), vehicle: saline with Tween-80) is 4 of 6.
Regarding `COc1cc(N=Nc2cc(CN(C)C)cc3ncccc23)c(OC)cc1N=Nc1ccc([N+](=O)[O-])cc1`, the survivor count (dose: 50.0 mg/kg/injection, schedule: Q01DX009 (ip), vehicle: Klucel (hydroxypropylcellulose) (HPC)) was 6 of 6. Moreover, under setting [6], the T/C was 128 % of control.
`C/C(Cl)=C/CN(C/C=C(/C)Cl)CCO`: the survivor count (dose: 200.0 mg/kg/injection, schedule: Q01DX005 (ip), vehicle: saline with Tween-80) is given as 0 of 6.
On to `Clc1n[nH]c(Cl)n1`, for which the survivor count is recorded as 6 of 6 under setting [7] and 4 of 6 under setting [1].
In the case of `COCCOP(=O)(N1CC1)N1CC1`, the T/C reads like this: (dose: 12.5 mg/kg/injection, schedule: Q04DX003 (ip), vehicle: saline) 131 % of control; (dose: 25.0 mg/kg/injection, schedule: Q04DX003 (ip), vehicle: saline) 131 % of control; (dose: 100.0 mg/kg/injection, schedule: Q04DX003 (ip), vehicle: saline) 127 % of control. Further, the survivor count (dose: 100.0 mg/kg/injection, schedule: Q01DX009 (ip), vehicle: saline) is listed as 6 of 6.
Turning to `Cc1cc(=O)n2c3c(c4c(cc13)c(CBr)cc(=O)n4C)OC2`, the survivor count is, setting by setting: (dose: 50.0 mg/kg/injection, schedule: Q01DX001 (ip), vehicle: Klucel (hydroxypropylcellulose) (HPC)) 5 of 6; (dose: 200.0 mg/kg/injection, schedule: Q01DX001 (ip), vehicle: Klucel (hydroxypropylcellulose) (HPC)) 0 of 6; (dose: 400.0 mg/kg/injection, schedule: Q01DX001 (ip), vehicle: Klucel (hydroxypropylcellulose) (HPC)) 0 of 6.
In the case of `Nc1ccc(S(=O)(=O)n2c(=O)oc3cc(Br)ccc32)cc1`, the survivor count is 6 of 6 (dose: 50.0 mg/kg/injection, schedule: Q04DX002 (ip), vehicle: Klucel (hydroxypropylcellulose) (HPC)) and 6 of 6 (dose: 200.0 mg/kg/injection, schedule: Q04DX002 (ip), vehicle: Klucel (hydroxypropylcellulose) (HPC)).
Take `O=C1c2cccc3cccc(c23)C(=O)N1CCNCCN1C(=O)c2cccc3cccc(c23)C1=O`: the survivor count under setting [8] is 6 of 6.
`CN(C)c1cc(N(C)C)c2cc(Cl)ccc2n1`: the survivor count under setting [6] was 0 of 6.
Regarding `C=CC(=NC(C)(C)C)Nc1c(Cl)cccc1Cl`, the survivor count by setting is: under setting [7], 3 of 6; under setting [1], 1 of 6; (dose: 50.0 mg/kg/injection, schedule: Q01DX009 (ip), vehicle: saline) 1 of 6; under setting [2], 0 of 6; under setting [3], 0 of 6.
As to `N#C/C(=C1/NC(=O)c2ccccc21)c1nc2ccccc2n1CCO`, the survivor count under setting [1] is reported as 6 of 6 and the survivor count under setting [2] is on record as 6 of 6.
Turning to `C=C(CC(O)(C(F)(F)F)C(F)(F)F)CC(O)(C(F)(F)F)C(F)(F)F`, the survivor count is reported as 0 of 5 (dose: 50.0 mg/kg/injection, schedule: Q01DX001 (ip), vehicle: saline with Tween-80); 0 of 6 (dose: 100.0 mg/kg/injection, schedule: Q01DX001 (ip), vehicle: saline with Tween-80); 0 of 6 (dose: 200.0 mg/kg/injection, schedule: Q01DX001 (ip), vehicle: saline with Tween-80); 0 of 6 (dose: 400.0 mg/kg/injection, schedule: Q01DX001 (ip), vehicle: saline with Tween-80).
Turning to `COc1cccc2c1C(=O)c1c(O)c3c(c(O)c1C2=O)CC(O)(/C(C)=N/NS(=O)(=O)c1ccc(C)cc1)CC3OC1CC(N)C(O)C(C)O1` (stereo unspecified), the T/C by setting is: (dose: 3.13 mg/kg/injection, schedule: Q01DX009 (ip), vehicle: water) 139 % of control; (dose: 6.25 mg/kg/injection, schedule: Q01DX009 (ip), vehicle: water) 136 % of control.
Consider `CN1C2=CC=CC=CC2=[N+](C)C1C(=C=[N-])C#N` (stereo unspecified), for which the survivor count is 3 of 6 under setting [8] and 0 of 6 (dose: 240.0 mg/kg/injection, schedule: Q01DX005 (ip), vehicle: saline with Tween-80).
